Measurements: PubChem BioAssay AID2685 (National Center for Advancing Translational Sciences (NCATS), 2010)
The list shows a part of the results. Shown are side measurements of this screen, not its main read-out; they come without a call. Compounds called inactive in the main read-out are mostly missing here. Potencies come from curve fits of mixed quality, noted in brackets.

Assay: qHTS Assay for Lipid Storage Modulators in Drosophila S3 Cells;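 as to cell number change: cells counted by Cell Tracker Red CMTPX staining in the red channel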
Conditions: BODIPY lipid droplet fluorescence, 18-24 h; for cell number change: measured here: cell count max response, cells fed with added oleic acid
Outline: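 Drosophila S3 cells got compounds at several concentrations plus oleic acid (400 uM solution). Laser-scanning cytometry with 488 nm excitation read lipid droplets at 500-530 nm and cells at 575-640 nm. Percent activity was relative to 20 uM Triacsin C.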

[1] = measured here: lipid fluorescence (Fed channel) AC50, cells fed with added oleic acid
[2] = measured here: cell number channel AC50, cells fed with added oleic acid

Row | SMILES | cell number change [%] | AC50 [1] | AC50 [2]
1 | Cc1ccc(NC(=O)C(C)OC(=O)CCC2CCCCC2)cc1 (stereo unspecified) | -11.5 | – | –
2 | O=C(O)C1CCN(c2ccc(S(=O)(=O)N3CCC(C(=O)O)CC3)cc2[N+](=O)[O-])CC1 | -6.42 | 25.9 µM [falling, single point] | –
3 | CC1(c2ccc(Cl)cc2Cl)NC(=O)N(CC(=O)N2CCN(C(=O)c3ccco3)CC2)C1=O (stereo unspecified) | 13.4 | 0.651 µM [falling, full curve, poor fit] | –
4 | Cc1ccc2oc(-c3ccccc3C(=O)O)cc(=O)c2c1 | 23.5 | 0.116 µM [falling, full curve] | 0.00461 µM [rising, full curve, poor fit]
5 | CCN(C(=O)c1cc2ccccc2oc1=O)c1ccccc1 | -6.69 | – | –
6 | CCOC(=O)N1CCN(S(=O)(=O)N2CCCC(C(=O)NCc3ccccc3Cl)C2)CC1 (stereo unspecified) | 28.1 | – | 0.103 µM [rising, full curve, poor fit]
7 | Cc1ccc2c(c1)C1CN(C)CCC1N2C(=S)Nc1ccc(Cl)cc1Cl (stereo unspecified) | 19 | 6.51 µM [rising, single point] | –
8 | Cc1cc(C)nc(NC2=NCC(=O)N2c2ccccc2)n1 | 85.3 | 6.51 µM [rising, partial curve, poor fit] | 3.66 µM [rising, full curve]
9 | CCCn1c(SCC(=O)Nc2cc(S(=O)(=O)N(C)C)ccc2OC)n[nH]c1=O | 14.5 | – | –
10 | Cc1nn(-c2ccccc2)c(Cl)c1C(=O)NCCN(C)C | -15.2 | 1.3 µM [falling, full curve, poor fit] | –
11 | O=C(c1ccco1)N1CCN(Cc2ccccc2F)CC1 | 17.9 | 0.326 µM [falling, full curve] | –
12 | CCOc1ccc(NC(=O)c2cc3n(n2)C(C(F)(F)F)CC(c2ccco2)N3)cc1 (stereo unspecified) | -0.922 | 4.11 µM [rising, single point] | –
13 | NC(=O)CSc1nnc(COc2cccc3ccccc23)o1 | 22.5 | 29.1 µM [rising, single point] | –
14 | O=C(CN1CCC(n2nnc3cc(F)ccc32)CC1)N1CCc2ccccc2C1 | -21.9 | 5.17 µM [rising, single point] | –
15 | CC(C)NC(=O)COc1nncc2ccccc12 | -37.4 | 29.1 µM [falling, single point] | 0.103 µM [falling, full curve]
16 | CC(=O)C(Cc1ccccc1)NC(=O)CN1CCc2ccccc2C1 (stereo unspecified) | 19 | 0.184 µM [falling, full curve, poor fit] | 0.146 µM [falling, full curve, poor fit]
17 | O=C(Nc1cccc2c1CCCC2)c1ccccc1Br | 18.5 | – | –
18 | COc1ccccc1CNS(=O)(=O)c1ccc2c(c1)NC(=O)C(C)S2 (stereo unspecified) | – | – | 2.06 µM [falling, single point]
19 | O=C(COc1cccc(C(F)(F)F)c1)Nc1ccccc1N1CCCCC1 | 31 | 5.17 µM [rising, full curve] | 4.11 µM [rising, full curve]
20 | O=C(Nc1ccn(Cc2cccc3ccccc23)n1)c1cccnc1 | 24.9 | – | –
21 | O=C(CN1C2=NCCN2c2ccccc21)c1ccco1 | -55.2 | 29.1 µM [falling, single point] | 29.1 µM [falling, single point]

Gathered by group, those above containing two or more sulfur atoms (2)
Row | SMILES | cell number change [%] | AC50 [1] | AC50 [2]
9 | CCCn1c(SCC(=O)Nc2cc(S(=O)(=O)N(C)C)ccc2OC)n[nH]c1=O | 14.5 | – | –
18 | COc1ccccc1CNS(=O)(=O)c1ccc2c(c1)NC(=O)C(C)S2 (stereo unspecified) | – | – | 2.06 µM [falling, single point]

Further records:

Row | SMILES | cell number change [%] | AC50 [1] | AC50 [2]
22 | O=C(CN1C(=O)NC2(CCCc3ccccc32)C1=O)c1ccc(F)cc1 (stereo unspecified) | -1.94 | 29.1 µM [falling, single point] | –
23 | Cn1c(CCN2CCOCC2)nc2cc(NC(=O)COc3ccc([N+](=O)[O-])cc3)ccc21 | 15.6 | 29.1 µM [rising, single point] | –
24 | COC(=O)CC1C(=O)NCCN1C(=O)CSc1nc2cc(Cl)ccc2o1 (stereo unspecified) | – | 0.103 µM [rising, single point] | 0.116 µM [rising, single point]
25 | CC1=C(C(=O)O)N2C(=O)C(NC(=O)c3c(F)cccc3F)C2SC1 (stereo unspecified) | 1.92 | 16.4 µM [rising, partial curve] | –
26 | CCc1noc(C)c1C(=O)NNC(=O)COc1cc(C)ccc1C | -18.1 | 0.00461 µM [rising, full curve, poor fit] | –
27 | CCN(Cc1ccccc1)C(=O)CCS(=O)(=O)c1ccc2c(c1)n(C)c(=O)c(=O)n2C | 29.1 | 0.0259 µM [rising, full curve, poor fit] | –
28 | OCC[C@H]1C[C@@H](O)[C@H](O)[C@]2(Cc3ccccc3CO2)O1 | -13.8 | – | –
29 | CCOc1ccc(N(CC(=O)NC2CCCCC2)C(=O)CCC(=O)Nc2nc(C)cs2)cc1 | 2.17 | – | –
30 | COc1ccc(-c2noc(N3CCC(C(=O)NC(C)c4ccccc4)CC3)n2)cc1 (stereo unspecified) | 13.3 | 23.1 µM [rising, single point] | –
31 | COc1ccc(/C=C(/C#N)S(=O)(=O)c2ccc(C)cc2)cc1 | 44.4 | – | 29.1 µM [rising, single point]
32 | CCOC(=O)c1c(NC(=O)CSc2nccn2C)sc(C(=O)NC)c1C | -0.803 | – | 0.58 µM [rising, full curve]
33 | CCc1cc2c(NCC(=O)O)ncnc2s1 | -80.8 | – | 20.6 µM [falling, single point]
34 | COc1ccc(N(CC(=O)NC2CCCC2)C(=O)Cn2nnc(-c3ccc(F)cc3)n2)cc1OC | 3.63 | – | –
35 | COc1ccc(OC)c(CN2CCN(C(=O)c3cccc(S(=O)(=O)Nc4ccccc4OC)c3)CC2)c1 | 51 | – | 3.66 µM [rising, full curve]
36 | COc1ccc(CCN=C(N)NS(=O)(=O)c2ccc3ccccc3c2)cc1 | 34.2 | 18.4 µM [rising, single point] | 29.1 µM [rising, single point]
37 | O=C(COc1coc(CN2CCN(Cc3ccccc3)CC2)cc1=O)Nc1ccccc1 | -8.24 | – | –
38 | Cc1ccc(/C=N/NC(=O)C(O)c2ccccc2)o1 (stereo unspecified) | 9.7 | 0.0058 µM [falling, full curve] | –
39 | Cc1cc(C(=O)COC(=O)C2CC2)c(C)n1-c1ccc(F)cc1 | -0.733 | – | –
40 | O=C(NCC(F)(F)F)c1nn(Cc2ccccc2)c(=O)c2ccccc12 | 8.87 | 2.91 µM [rising, full curve] | –
41 | Cn1ccnc1SCC(=O)N1CCN(S(=O)(=O)c2ccccc2)CC1 | – | – | 0.103 µM [rising, single point]
42 | Cc1ccc(NCc2nnc(SCC(=O)OC3CCCCC3)o2)c(C)c1 | 11.3 | 0.231 µM [rising, full curve, poor fit] | –

Row | SMILES | cell number change [%] | AC50 [1] | AC50 [2]
43 | COc1ccc(S(=O)(=O)N(CC(=O)NCc2ccco2)c2ccc(C)cc2)cc1OC | -6.05 | 5.8 µM [falling, partial curve] | –
44 | Cc1noc(NS(=O)(=O)c2ccc(N/C=C/C(=O)c3cccnc3)cc2)c1C | 23.5 | 6.51 µM [falling, single point] | –
45 | COc1cccc(/C=N/Nc2cc(C)nc(-c3ccccc3O)n2)c1O | -55.7 | 32.6 µM [falling, single point] | 20.6 µM [falling, single point]
46 | COc1ccc(C(=O)Nc2ccnn2C2CCN(C(=O)c3cccnc3)CC2)cc1 | -1.66 | – | –
47 | Cn1nc(-c2ccccc2)cc1NC(=O)c1ccc(Cl)cc1 | 8.92 | 3.26 µM [falling, single point] | –
48 | CCCCN(C(=O)c1cc(=O)[nH]c2ccccc12)c1c(N)n(CCC)c(=O)[nH]c1=O | 12.7 | 7.31 µM [falling, partial curve, poor fit] | 0.00461 µM [falling, full curve, poor fit]
49 | O=C(NCc1ccccc1)Nc1cccn(Cc2c(F)cccc2Cl)c1=O | – | – | 0.146 µM [falling, full curve, poor fit]
50 | C=CCN1C(=NC(=O)CCC(=O)O)SC2CS(=O)(=O)CC21 (stereo unspecified) | 2.9 | 6.51 µM [falling, single point] | –
51 | N#Cc1nc(-c2ccc(OCc3ccc(Cl)cc3)cc2)oc1N1CCOCC1 | 11.3 | – | –
52 | Cc1[nH][nH]c(=O)c1C=Nc1ccc(C(F)(F)F)cc1 | 16.5 | – | –
53 | COc1ccc(NC(=O)CSc2nc3c(c(=O)n2-c2ccccc2OC)SCC3)cc1 | 12.8 | 5.8 µM [rising, partial curve, poor fit] | 0.731 µM [rising, full curve]
54 | CCCCN(C(=O)C1CCCO1)c1c(N)n(CC(C)C)c(=O)[nH]c1=O (stereo unspecified) | -6 | – | –
55 | CC(C)c1ccc(NC2CCCN(C(=O)CCc3cnn(C)c3)C2)cc1 (stereo unspecified) | -0.289 | 16.4 µM [rising, partial curve] | –
56 | O=C(Nc1ccccc1N1CCCCC1)c1ccc(OC(F)F)cc1 | 2.56 | 29.1 µM [falling, single point] | –
57 | CCCCn1c(SCn2nnc3ccccc3c2=O)nc2cc(S(N)(=O)=O)ccc21 | – | 0.231 µM [rising, full curve, poor fit] | 0.82 µM [rising, partial curve]
58 | Cc1cccc(OCCCC(=O)NNC(=O)CCN2CCN(c3ccccc3)CC2)c1 | 53.5 | – | 18.4 µM [rising, single point]
59 | CCn1c(=O)c2cc(C(=O)Nc3ccccc3OC)sc2c2ccccc21 | 27.2 | 0.259 µM [rising, partial curve, poor fit] | 0.326 µM [rising, full curve, poor fit]
60 | O=C(COC(=O)Cc1ccc(Br)cc1)NC12CC3CC(CC(C3)C1)C2 | -8.35 | 5.17 µM [falling, full curve] | –
61 | Cc1nnc(NC(=O)c2cc(S(=O)(=O)N(C)C)ccc2N2CCCC2)s1 | 15.4 | 29.1 µM [rising, single point] | –
